The values below come from the supplement of paper PMC8256030.

Values joined by “and” are separate entries in the source; they are usually repeats but may differ in a detail not shown here. Equal entries are not always repeated. This is one part of the list. Repeats in this data set agree poorly, so a single value says little.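 HEK293T cells were given each compound shortly before transfection with a reporter in which red mCherry is followed by the SARS-CoV-2 frameshift element and then GFP in the −1 frame, so GFP appears only after frameshifting.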

The assay concerns HEK293T. Put plainly: percent viability (nuclei count) relative to control; higher = more viable cells. To be noted: 10 µM; 24 h.
Regarding `Nc1nc(=O)c2nc(CNc3ccc(C(=O)N[C@@H](CCC(=O)O)C(=O)O)cc3)cnc2[nH]1` [folic acid], the percent viability came to 156%.

As to `Cc1ccc2c(Br)cc(Br)c(OC(=O)c3ccccc3)c2n1` [broxaldine], the percent viability was found to be 339%.

Regarding `Clc1ccc2c(c1)CCc1cccnc1C2=C1CCNCC1` [desloratadine], the percent viability is 280% and 164%.

Regarding `O=P(O)(O)C(O)(Cc1cccnc1)P(=O)(O)O` [risedronic acid], the percent viability is 159% and 231%.

On to `CC(N)C12CC3CC(CC(C3)C1)C2` (configuration not stated) [Rimantadine], for which the percent viability worked out at 146%.

Consider `CC(=O)N[C@@H](CC(=O)N[C@@H](CCC(=O)O)C(=O)O)C(=O)O` [spaglumic acid], for which the percent viability came out at 234%.

Turning to `c1ccc(OCc2ccc(CCCN3CCOCC3)cc2)cc1` [fomocaine], the percent viability is 86.2%.

Regarding `O=C1c2ccccc2C(=O)C1c1ccc(Cl)cc1` [clorindione], the percent viability came to 278%.

Regarding `Clc1ccc(Cn2c(CN3CCCC3)nc3ccccc32)cc1`, the percent viability is 306%.

In the case of `CCC(=O)OCC(=O)[C@@]1(OC(=O)CC)[C@H](C)C[C@H]2[C@H]3[C@H]([C@@H](O)C[C@@]21C)[C@@]1(C)C=CC(=O)C=C1C[C@H]3Cl` [Alclometasone], the percent viability turned out to be 318%.

Take `CO/N=C(\C(=O)N[C@@H]1C(=O)N2C(C(=O)O)=CCS[C@H]12)c1csc(N)n1` [Cefizox]: the percent viability worked out at 195%.

Turning to `Cc1c(C)c2c(c(C)c1O)CCC(C)(COc1ccc(CC3SC(=O)NC3=O)cc1)O2` (configuration not stated) [troglitazone], the percent viability came to 251%.

`N/N=c1/ccc(C(N)=O)n[nH]1` [hydracarbazine]: the percent viability was 153%.

As to `CCC(CC)(CC(=O)Nc1cccc(/C=C/c2nc(C3CCC3)cs2)c1)C(=O)O` [cinalukast], the percent viability was found to be 305%.

Take `CCc1oc2ccccc2c1C(=O)c1cc(I)c(O)c(I)c1` [benziodarone]: the percent viability turned out to be 43.5%.

Regarding `COC(=O)C1=C(C)NC(C)=C(C(=O)OC/C=C/c2ccccc2)C1c1cccc([N+](=O)[O-])c1` (configuration not stated) [pranidipine], the percent viability turned out to be 216%.

On to `CCOCc1nc2c(N)nc3ccccc3c2n1CC(C)(C)O` [resiquimod], for which the percent viability was found to be 219%.

`CC(=O)O[C@H]1Cc2ccccc2N(C(N)=O)c2ccccc21` [Eslicarbazepine acetate]: the percent viability was found to be 211%.

As to `COc1ccnc(C[S+]([O-])c2nc3cc(-n4cccc4)ccc3[nH]2)c1C` (configuration not stated) [ilaprazole], the percent viability is 203%.

Consider `O=c1ccc2ccccc2o1`, for which the percent viability worked out at 413%.

With `COC(=O)Nc1nc2cc(C(=O)c3ccccc3)ccc2[nH]1` [Mebendazol], the percent viability is 16.3%.

As for `Cc1cc(-n2nc3ccc(Cl)cc3n2)c(O)c(C(C)(C)C)c1` [bumetrizole], the percent viability worked out at 149%.

As to `CCCCCCCCCCCCCCCC(=O)OC[C@@H](NC(=O)C(Cl)Cl)[C@H](O)c1ccc([N+](=O)[O-])cc1`, the percent viability stood at 150%.

For `O=C(O)c1ccccc1C(=O)Nc1ccc(S(=O)(=O)Nc2nccs2)cc1` [phthalylsulfathiazole], the percent viability was found to be 254%.

Regarding `CC[C@H]1OC(=O)[C@H](C)[C@@H](O[C@H]2C[C@@](C)(OC)[C@@H](O)[C@H](C)O2)[C@H](C)[C@@H](O[C@@H]2O[C@H](C)C[C@H](N(C)C)[C@H]2O)[C@](C)(O)C[C@@H](C)CN(C)[C@H](C)[C@@H](O)[C@]1(C)O` [Azithromycin], the percent viability came to 195%.

As to `CNC1COc2ccccc2C(O)C1` (configuration not stated) [exepanol], the percent viability amounted to 199%.

For `C/C(=C(/CCOC(=O)c1ccccc1)SC(=O)c1ccccc1)N(C=O)Cc1cnc(C)nc1N` [bentiamine], the percent viability was 104%.

For `Cn1c(=O)cc(N2CCC[C@@H](N)C2)n(Cc2ccccc2C#N)c1=O` [Alogliptin], the percent viability is 374%.

`CC[N+](CC)(CC)CCOc1ccc(/C=C/c2ccccc2)cc1` [stilonium iodide]: the percent viability is 107%.

As for `NCCNC(=O)c1ccc(Cl)cn1` [lazabemide], the percent viability came out at 263%.

As for `Nc1ccc(S(=O)(=O)Nc2cnc3ccccc3n2)cc1`, the percent viability amounted to 193%.

Turning to `COc1ccc2[nH]cc(CCNC(C)=O)c2c1` [Melatonin], the percent viability was found to be 341%.

With `CN(C)CCc1c[nH]c2ccc(CS(=O)(=O)N3CCCC3)cc12` [almotriptan], the percent viability was found to be 185%.

For the compound `C#C[C@]1(OC(C)=O)CC[C@H]2[C@@H]3CCC4=C/C(=N/O)CC[C@@H]4[C@H]3CC[C@@]21CC` [Ortho-Prefest], the percent viability worked out at 100%.

Take `CC(=O)NC(CC(C)C)C(=O)O` (configuration not stated) [acetylleucine]: the percent viability was determined as 311%.

Regarding `CN(C)CCOC(C)(c1ccccc1)c1ccc(Br)cc1` (configuration not stated) [embramine], the percent viability was determined as 465%.

In the case of `CC(=O)OCC1=C(C(=O)O)N2C(=O)[C@@H](NC(=O)Cc3cccs3)[C@H]2SC1` [cefalotin], the percent viability is 127%.
